## Screening data, single-dose tests

Results are given as percent effect. The record does not define 0% and 100%; most values in the screen are far below 50% and negative numbers occur (in some assays of this library far below -100). The compounds are a random part of those screened.

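Whole-parasite assay of Trypanosoma brucei over 72 hours; the read-out is not stated. Compounds at 10 µM. Higher reads as stronger inhibition (inferred: compounds with an IC50 in retests scored well above the rest). Values scatter widely below zero; nearly all retest evidence comes from the higher of the two concentrations used. About 2,700 compounds were tested under these conditions; 0.51% (about 14) showed 50% or more at least once.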

- c1cnn(CCN2CCOC(Cn3cccn3)C2)c1 (stereo not shown) : -69.43%
- O=C(Nc1cc(F)ccc1OCC1CCCO1)N1CCSCC1 (stereo not shown) : -50.92%
- Cc1nnc(CN2CCN(C(C)c3nc(C4CC4)no3)CC2)o1 (stereo not shown) : -53.71%
- CCn1ccnc1CN1CCCN(C(=O)c2cc(C)nn2CC)CC1 : -30.26%
- Cc1nccc(C(=O)N2CCCC2c2noc(C(C)C)n2)n1 (stereo not shown) : -3.087%
- COC(=O)C(NC(=O)CCc1ccco1)c1cc(F)ccc1F (stereo not shown) : -35.39%
- CC(=O)N(Cc1noc(C)n1)C1CCN(Cc2cccc(C#N)c2)C1 (stereo not shown) : -40.03%
- CC(O)CN1CCN(C(=O)c2sccc2C2CC2)CC1 (stereo not shown) : 4.634%
- CCc1n[nH]c(C2CN(C(=O)c3ccc(NC4CC4)nc3)CCO2)n1 (stereo not shown) : -49.79%
- COc1ccc(Cl)cc1CC(=O)N1CCN(CC(C)O)CC1 (stereo not shown) : -65.19%
- Cc1nc(C)n(CC2CCCN2Cc2nc3ccccc3o2)n1 (stereo not shown) : -27.74%
- Cc1ccc(CNC(C)c2ccc(OCC(=O)NC3CC3)cc2)o1 (stereo not shown) : 8.73%
- Cc1nc(CN2CCCN(C(=O)c3cnccn3)CC2)cs1 : -25.87%
- Cc1nccn1C1CCCN(C(=O)c2cnc[nH]2)C1 (stereo not shown) : 3.935%
- CCNc1cc2c(nn1)CCN(C(=O)CC1CCCC1)C2 : 8.736%
- c1cnnc(N2CCCC2CNc2ncnc3sccc23)c1 (stereo not shown) : -28.09%
- CC(C)(CNC(=O)NCCc1ccn(-c2ccccc2)n1)C(N)=O : -34.81%
- COc1ccc(S(=O)(=O)N2CCc3ccc(Cl)cc32)cc1C(=O)O : -31.45%
- CCc1n[nH]c(C2CN(C(=O)c3ccnc(N(C)C)c3)CCO2)n1 (stereo not shown) : -79.68%
- O=C1C(NCc2nnc3n2CCCC3)CCN1c1ccccc1Cl (stereo not shown) : -68.13%
- NC(=O)C1CCN(C(=O)NCCOc2ccc3c(c2)OCO3)C1 (stereo not shown) : -43.12%
- COc1ncccc1CNCc1c(C)nn(C)c1N1CCOCC1 : -58.12%
- O=C(NCCc1ccn(-c2ccccc2)n1)N1CCSCC1 : 92.88%
- CCc1nnc2n1CCN(C(=O)c1cc(Cl)c[nH]1)C2 : -68.26%
- COc1ccccc1C(=O)N(C)C1CCN(c2ccccn2)CC1 : -46.38%
- COc1ccc(OCCNCc2c(C)nn(C)c2N(C)C)cc1.Cl : -47.99%
- CN(C(=O)Nc1ccncc1)C1CCN(c2ccccc2)C1=O (stereo not shown) : -26.74%
- Cc1cnn(CC2CCCCN2C(=O)Cc2ccc(C#N)cc2)c1 (stereo not shown) : -21.23%
- Cc1cnn(CC2CCCN2C(=O)Cc2c(C)nc(C)[nH]c2=O)c1 (stereo not shown) : -56%
- COc1ccc(CN2CCN(C(=O)c3ccc(C)n3C)CC2)cc1 : -34.32%
- COc1ccccc1C(=O)N1CCC(Nc2ccc(C)nn2)CC1 : -24.45%
- Cc1cnn(CCNCc2ccccc2F)c1 : -73.73%
- O=C(c1ccsc1)N1CCC(Nc2cccnn2)CC1 : -34.89%
- CNc1snc(C)c1C(=O)N1CCCC(n2ccnc2)C1 (stereo not shown) : 2.621%
- Cc1cnn(CC(C)NCc2ccc(OCC(N)=O)cc2)c1 (stereo not shown) : -52.25%
- CSc1ccc(C(=O)N2CCOCC2c2c(C)nn(C)c2C)o1 (stereo not shown) : -42.65%
- CS(=O)(=O)NCCCNC(=O)NCc1ccccc1 : -9.006%
- CCOCCCNC(=O)Nc1ccc(F)c(C(N)=O)c1 : -30.76%
- CN(C(=O)c1ccc(Cl)cc1)C1CCN(c2ccccn2)CC1 : -17.69%
- Cc1nc(C)n(CC2CCCN2Cc2nc3ccccc3c(=O)[nH]2)n1 (stereo not shown) : -55.6%
- CCOc1ncccc1C(=O)N1CCCC1c1c(C)nn(C)c1Cl (stereo not shown) : -32.63%

Some entries from above, unchanged:

compound,percent effect
Cc1nc(C)n(CC2CCCN2Cc2nc3ccccc3o2)n1 (stereo not shown),-27.74%
COC(=O)C(NC(=O)CCc1ccco1)c1cc(F)ccc1F (stereo not shown),-35.39%
CS(=O)(=O)NCCCNC(=O)NCc1ccccc1,-9.006%
CC(=O)N(Cc1noc(C)n1)C1CCN(Cc2cccc(C#N)c2)C1 (stereo not shown),-40.03%

Measurements from “University of Dundee, Small-Polar-MMV Screening Library” (2021), ChEMBL document CHEMBL3988442.